Reference: publication PMC2891856
No constants are given. Whether binding was seen depends on the method and setting. In cells and extracts the contact can be indirect. Some entries that bind do so weakly or less than the wild type.

The chains behind the UniProt entries cited, without tags or fusion partners.
UniProt P49815: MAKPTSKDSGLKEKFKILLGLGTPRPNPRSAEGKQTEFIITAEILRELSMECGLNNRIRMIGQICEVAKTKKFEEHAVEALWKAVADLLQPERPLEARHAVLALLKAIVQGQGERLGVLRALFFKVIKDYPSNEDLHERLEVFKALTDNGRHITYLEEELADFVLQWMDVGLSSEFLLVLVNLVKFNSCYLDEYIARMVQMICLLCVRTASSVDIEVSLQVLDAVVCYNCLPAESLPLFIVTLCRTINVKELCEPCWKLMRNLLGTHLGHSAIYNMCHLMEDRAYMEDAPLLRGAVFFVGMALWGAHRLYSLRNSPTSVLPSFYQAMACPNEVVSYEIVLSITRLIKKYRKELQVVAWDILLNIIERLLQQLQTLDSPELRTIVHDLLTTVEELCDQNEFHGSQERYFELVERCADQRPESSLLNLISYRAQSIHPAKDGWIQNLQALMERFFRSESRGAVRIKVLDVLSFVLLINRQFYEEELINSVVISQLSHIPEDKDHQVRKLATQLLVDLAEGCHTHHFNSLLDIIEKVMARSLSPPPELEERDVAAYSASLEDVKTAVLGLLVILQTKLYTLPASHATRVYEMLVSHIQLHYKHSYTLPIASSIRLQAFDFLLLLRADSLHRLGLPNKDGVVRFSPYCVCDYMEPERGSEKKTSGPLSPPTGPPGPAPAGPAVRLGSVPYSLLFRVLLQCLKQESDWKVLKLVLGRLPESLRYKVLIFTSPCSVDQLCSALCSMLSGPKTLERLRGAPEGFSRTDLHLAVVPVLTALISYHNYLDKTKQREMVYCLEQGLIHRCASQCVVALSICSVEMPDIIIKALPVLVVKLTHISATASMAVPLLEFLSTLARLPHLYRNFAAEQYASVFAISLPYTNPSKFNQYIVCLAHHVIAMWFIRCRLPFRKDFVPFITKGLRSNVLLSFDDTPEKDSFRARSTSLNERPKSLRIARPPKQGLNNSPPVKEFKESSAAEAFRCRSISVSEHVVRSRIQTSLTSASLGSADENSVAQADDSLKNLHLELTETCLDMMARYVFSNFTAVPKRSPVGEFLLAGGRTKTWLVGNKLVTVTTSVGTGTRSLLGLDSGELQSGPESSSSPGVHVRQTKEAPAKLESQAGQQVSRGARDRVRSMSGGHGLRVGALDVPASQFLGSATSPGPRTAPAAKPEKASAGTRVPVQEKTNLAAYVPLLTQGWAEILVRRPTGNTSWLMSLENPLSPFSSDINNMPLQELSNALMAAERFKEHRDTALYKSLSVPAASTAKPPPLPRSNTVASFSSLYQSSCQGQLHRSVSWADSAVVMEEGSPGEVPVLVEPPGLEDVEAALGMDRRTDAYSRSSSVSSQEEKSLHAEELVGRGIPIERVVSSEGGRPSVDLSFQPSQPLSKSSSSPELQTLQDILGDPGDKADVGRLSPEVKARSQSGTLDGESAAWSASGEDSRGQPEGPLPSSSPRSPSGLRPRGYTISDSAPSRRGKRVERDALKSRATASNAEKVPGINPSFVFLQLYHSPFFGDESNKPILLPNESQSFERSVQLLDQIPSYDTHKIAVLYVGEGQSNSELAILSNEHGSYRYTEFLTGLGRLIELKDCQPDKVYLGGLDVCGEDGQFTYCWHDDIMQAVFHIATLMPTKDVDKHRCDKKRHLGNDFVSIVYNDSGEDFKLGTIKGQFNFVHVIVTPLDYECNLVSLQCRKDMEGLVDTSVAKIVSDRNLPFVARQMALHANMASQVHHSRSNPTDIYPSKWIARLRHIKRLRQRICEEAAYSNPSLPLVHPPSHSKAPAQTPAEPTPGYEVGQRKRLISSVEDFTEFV
UniProt O94776: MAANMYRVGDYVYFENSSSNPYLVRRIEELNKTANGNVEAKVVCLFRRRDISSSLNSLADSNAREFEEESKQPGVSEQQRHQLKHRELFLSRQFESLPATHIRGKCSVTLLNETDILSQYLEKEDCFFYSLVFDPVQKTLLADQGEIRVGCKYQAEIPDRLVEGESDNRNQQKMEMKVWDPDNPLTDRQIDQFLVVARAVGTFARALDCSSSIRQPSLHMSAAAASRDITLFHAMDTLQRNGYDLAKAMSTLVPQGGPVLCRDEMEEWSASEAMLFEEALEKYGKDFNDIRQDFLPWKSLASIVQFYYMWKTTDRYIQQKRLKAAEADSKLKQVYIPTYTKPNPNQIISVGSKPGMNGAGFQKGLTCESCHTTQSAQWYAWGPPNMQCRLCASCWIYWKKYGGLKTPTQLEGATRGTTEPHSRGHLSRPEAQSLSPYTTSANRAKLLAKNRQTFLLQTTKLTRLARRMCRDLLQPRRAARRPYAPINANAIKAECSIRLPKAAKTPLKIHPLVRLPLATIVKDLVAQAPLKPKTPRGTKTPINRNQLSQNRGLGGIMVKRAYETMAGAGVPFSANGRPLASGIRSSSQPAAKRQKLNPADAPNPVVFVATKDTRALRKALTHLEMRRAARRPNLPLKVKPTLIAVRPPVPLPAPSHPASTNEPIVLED
UniProt P16779: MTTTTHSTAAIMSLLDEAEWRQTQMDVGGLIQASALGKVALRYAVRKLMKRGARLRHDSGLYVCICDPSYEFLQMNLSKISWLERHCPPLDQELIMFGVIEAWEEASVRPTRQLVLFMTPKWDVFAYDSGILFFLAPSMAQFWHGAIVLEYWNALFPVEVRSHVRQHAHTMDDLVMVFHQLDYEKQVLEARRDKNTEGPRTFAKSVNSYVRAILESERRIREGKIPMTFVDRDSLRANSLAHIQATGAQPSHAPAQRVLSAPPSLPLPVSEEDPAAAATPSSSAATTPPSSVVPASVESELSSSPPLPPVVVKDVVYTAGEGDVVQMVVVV

Key:
[1] = target: T1, SIN3A (human (endogenous in fibroblasts)) (UniProt Q96ST3); test: co-IP
T1 sequence: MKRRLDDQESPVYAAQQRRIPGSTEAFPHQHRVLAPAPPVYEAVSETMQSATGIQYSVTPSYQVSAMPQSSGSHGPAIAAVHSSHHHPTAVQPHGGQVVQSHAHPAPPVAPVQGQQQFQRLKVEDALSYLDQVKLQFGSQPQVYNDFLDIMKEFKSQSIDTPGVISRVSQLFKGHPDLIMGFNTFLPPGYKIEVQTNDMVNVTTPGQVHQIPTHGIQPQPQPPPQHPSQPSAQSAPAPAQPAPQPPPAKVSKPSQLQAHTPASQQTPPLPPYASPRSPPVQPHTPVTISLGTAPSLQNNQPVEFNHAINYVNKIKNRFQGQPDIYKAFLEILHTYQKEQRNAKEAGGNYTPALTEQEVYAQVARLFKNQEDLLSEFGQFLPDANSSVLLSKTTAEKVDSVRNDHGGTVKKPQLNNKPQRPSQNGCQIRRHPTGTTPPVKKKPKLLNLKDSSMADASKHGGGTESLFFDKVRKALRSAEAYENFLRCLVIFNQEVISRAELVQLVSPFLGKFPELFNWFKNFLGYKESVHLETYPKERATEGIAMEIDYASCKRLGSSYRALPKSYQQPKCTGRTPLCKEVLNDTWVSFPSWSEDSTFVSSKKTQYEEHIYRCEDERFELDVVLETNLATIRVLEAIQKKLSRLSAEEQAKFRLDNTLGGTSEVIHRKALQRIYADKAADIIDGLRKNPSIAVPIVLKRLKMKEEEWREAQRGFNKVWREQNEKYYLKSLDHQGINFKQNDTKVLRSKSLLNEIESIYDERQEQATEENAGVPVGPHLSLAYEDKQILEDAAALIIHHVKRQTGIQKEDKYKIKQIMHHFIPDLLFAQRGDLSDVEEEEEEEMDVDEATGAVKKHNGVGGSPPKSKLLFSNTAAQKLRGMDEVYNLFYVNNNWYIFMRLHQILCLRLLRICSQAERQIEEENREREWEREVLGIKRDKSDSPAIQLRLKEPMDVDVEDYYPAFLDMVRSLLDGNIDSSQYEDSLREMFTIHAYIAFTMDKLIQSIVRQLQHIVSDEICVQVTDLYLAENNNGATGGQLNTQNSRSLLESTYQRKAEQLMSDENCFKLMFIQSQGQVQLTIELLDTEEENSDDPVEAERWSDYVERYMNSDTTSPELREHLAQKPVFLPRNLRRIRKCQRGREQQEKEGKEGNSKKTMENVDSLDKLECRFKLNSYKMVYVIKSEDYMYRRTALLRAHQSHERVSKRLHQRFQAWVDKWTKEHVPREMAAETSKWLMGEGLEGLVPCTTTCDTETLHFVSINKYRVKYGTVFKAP

[2] = target: tuberous sclerosis protein 2 (human (endogenous in fibroblasts)) (UniProt P49815); test: co-IP
[3] = target: MTA2 (human (endogenous in fibroblasts)) (UniProt O94776); test: co-IP
[4] = target: tuberous sclerosis protein 2 (human (endogenous in fibroblasts)) (UniProt P49815); test: co-IP; whole cell lysates of uninfected pUL38-expressing fibroblasts (HF-UL38); antibodies against HDAC1 or TSC2; Western blot with anti-pUL38

HCMV pUL38 (from UniProt P16779 1-331)
binding [1]: no binding
binding [2]: binds
binding [3]: binds

HCMV pUL38 expressed in uninfected fibroblasts (from UniProt P16779 1-331)
binding [4]: binds
